Test: Evaluation of hue and vividness of recorded image
Type: physicochemical
Conditions: density (D value) about 1.0

Row | SMILES | Hue L* (HG (Photo glossy film)) | Hue a* (HG (Photo glossy film)) | Hue b* (HG (Photo glossy film)) | Vividness C* (HG (Photo glossy film)) | Hue L* (PM (Paper for PM photo)) | Hue a* (PM (Paper for PM photo)) | Hue b* (PM (Paper for PM photo)) | Vividness C* (PM (Paper for PM photo)) | Hue L* (PR (Professional photo paper)) | Hue a* (PR (Professional photo paper)) | Hue b* (PR (Professional photo paper)) | Vividness C* (PR (Professional photo paper)) | Hue L* (Plain Paper) | Hue a* (Plain Paper) | Hue b* (Plain Paper) | Vividness C* (Plain Paper)
1 | COc1cc(N=Nc2cccc(S(=O)(=O)[O-])c2)ccc1Nc1nc(Nc2ccc(N=Nc3cccc(S(=O)(=O)[O-])c3)cc2OC)nc(N(CCO)CCO)n1.[Na+].[Na+] [Comparative Example 1] | 94.4 | −8.1 | 61.4 | 61.9 | 94.6 | −9.8 | 61.4 | 62.2 | 95.2 | −8.4 | 60.3 | 60.9 | 89.1 | −1.4 | 62.7 | 62.7
2 | COc1cc(N=Nc2cccc(S(=O)(=O)[O-])c2)ccc1NC(=O)Nc1ccc(N=Nc2cccc(S(=O)(=O)[O-])c2)cc1OC.[Na+].[Na+] [Comparative Example 2] | 94.0 | −7.7 | 63.6 | 64.1 | 95.0 | −9.8 | 68.2 | 68.9 | 95.4 | −8.4 | 64.4 | 64.9 | 88.7 | −0.4 | 68.6 | 68.6

From patent US20060169172A1, “Disazo compound and ink composition containing the same” (priority 2003, published 2006)
